Compound in the test: Nc1ncnc2c1ncn2[C@@H]1O[C@H](COP(=O)(O)OP(=O)(O)OP(=O)(O)O)[C@@H](O)[C@H]1O [adenosine triphosphate]
The experiment in a line: NP40-soluble protein abundance relative to vehicle (solubility fold change) (ratio); higher = more soluble protein in presence of ATP. In a few lines:
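In three independent experiments, Jurkat crude lysate made by Dounce homogenisation was treated for 10 min at room temperature and then 3 min at 37 °C with eight concentrations ranging from 0.1 to 10 mM. It was then solubilised with 0.8% NP40 plus benzonase for 60 min at 4 °C and ultracentrifuged. The supernatant was TMT-labelled for LC-MS/MS, and each value is the fold change against the detergent-processed vehicle for the same replicate, using vsn-normalised intensities.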

By UniProt entry, the sequences of proteins in these tests, tags left out. Where a name states a change or a piece, a line headed by the entry shows the natural chain unless it says otherwise.
UniProt P52943: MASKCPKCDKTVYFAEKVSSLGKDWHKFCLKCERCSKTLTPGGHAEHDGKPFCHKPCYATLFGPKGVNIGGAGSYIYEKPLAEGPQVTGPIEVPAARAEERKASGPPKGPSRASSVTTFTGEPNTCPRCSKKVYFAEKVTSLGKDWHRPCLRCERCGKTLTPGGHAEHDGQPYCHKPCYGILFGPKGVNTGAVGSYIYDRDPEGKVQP
UniProt P52739: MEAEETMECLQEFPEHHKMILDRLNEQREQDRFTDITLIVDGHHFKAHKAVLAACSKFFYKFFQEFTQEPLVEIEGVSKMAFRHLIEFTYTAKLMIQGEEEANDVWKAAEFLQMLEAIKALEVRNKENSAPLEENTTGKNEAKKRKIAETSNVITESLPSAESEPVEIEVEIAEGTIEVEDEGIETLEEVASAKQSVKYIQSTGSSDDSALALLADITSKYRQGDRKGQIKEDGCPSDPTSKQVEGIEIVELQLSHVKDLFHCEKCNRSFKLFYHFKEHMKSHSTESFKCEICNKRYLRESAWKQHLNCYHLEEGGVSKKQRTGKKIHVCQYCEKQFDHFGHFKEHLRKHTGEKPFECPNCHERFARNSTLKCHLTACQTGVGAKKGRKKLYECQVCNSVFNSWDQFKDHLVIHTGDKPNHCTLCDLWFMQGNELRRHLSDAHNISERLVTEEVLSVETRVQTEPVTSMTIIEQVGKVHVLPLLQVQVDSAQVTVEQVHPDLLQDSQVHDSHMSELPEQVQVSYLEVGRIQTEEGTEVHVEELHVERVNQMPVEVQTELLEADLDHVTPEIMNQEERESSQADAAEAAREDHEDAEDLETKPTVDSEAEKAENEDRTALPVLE
UniProt P49454: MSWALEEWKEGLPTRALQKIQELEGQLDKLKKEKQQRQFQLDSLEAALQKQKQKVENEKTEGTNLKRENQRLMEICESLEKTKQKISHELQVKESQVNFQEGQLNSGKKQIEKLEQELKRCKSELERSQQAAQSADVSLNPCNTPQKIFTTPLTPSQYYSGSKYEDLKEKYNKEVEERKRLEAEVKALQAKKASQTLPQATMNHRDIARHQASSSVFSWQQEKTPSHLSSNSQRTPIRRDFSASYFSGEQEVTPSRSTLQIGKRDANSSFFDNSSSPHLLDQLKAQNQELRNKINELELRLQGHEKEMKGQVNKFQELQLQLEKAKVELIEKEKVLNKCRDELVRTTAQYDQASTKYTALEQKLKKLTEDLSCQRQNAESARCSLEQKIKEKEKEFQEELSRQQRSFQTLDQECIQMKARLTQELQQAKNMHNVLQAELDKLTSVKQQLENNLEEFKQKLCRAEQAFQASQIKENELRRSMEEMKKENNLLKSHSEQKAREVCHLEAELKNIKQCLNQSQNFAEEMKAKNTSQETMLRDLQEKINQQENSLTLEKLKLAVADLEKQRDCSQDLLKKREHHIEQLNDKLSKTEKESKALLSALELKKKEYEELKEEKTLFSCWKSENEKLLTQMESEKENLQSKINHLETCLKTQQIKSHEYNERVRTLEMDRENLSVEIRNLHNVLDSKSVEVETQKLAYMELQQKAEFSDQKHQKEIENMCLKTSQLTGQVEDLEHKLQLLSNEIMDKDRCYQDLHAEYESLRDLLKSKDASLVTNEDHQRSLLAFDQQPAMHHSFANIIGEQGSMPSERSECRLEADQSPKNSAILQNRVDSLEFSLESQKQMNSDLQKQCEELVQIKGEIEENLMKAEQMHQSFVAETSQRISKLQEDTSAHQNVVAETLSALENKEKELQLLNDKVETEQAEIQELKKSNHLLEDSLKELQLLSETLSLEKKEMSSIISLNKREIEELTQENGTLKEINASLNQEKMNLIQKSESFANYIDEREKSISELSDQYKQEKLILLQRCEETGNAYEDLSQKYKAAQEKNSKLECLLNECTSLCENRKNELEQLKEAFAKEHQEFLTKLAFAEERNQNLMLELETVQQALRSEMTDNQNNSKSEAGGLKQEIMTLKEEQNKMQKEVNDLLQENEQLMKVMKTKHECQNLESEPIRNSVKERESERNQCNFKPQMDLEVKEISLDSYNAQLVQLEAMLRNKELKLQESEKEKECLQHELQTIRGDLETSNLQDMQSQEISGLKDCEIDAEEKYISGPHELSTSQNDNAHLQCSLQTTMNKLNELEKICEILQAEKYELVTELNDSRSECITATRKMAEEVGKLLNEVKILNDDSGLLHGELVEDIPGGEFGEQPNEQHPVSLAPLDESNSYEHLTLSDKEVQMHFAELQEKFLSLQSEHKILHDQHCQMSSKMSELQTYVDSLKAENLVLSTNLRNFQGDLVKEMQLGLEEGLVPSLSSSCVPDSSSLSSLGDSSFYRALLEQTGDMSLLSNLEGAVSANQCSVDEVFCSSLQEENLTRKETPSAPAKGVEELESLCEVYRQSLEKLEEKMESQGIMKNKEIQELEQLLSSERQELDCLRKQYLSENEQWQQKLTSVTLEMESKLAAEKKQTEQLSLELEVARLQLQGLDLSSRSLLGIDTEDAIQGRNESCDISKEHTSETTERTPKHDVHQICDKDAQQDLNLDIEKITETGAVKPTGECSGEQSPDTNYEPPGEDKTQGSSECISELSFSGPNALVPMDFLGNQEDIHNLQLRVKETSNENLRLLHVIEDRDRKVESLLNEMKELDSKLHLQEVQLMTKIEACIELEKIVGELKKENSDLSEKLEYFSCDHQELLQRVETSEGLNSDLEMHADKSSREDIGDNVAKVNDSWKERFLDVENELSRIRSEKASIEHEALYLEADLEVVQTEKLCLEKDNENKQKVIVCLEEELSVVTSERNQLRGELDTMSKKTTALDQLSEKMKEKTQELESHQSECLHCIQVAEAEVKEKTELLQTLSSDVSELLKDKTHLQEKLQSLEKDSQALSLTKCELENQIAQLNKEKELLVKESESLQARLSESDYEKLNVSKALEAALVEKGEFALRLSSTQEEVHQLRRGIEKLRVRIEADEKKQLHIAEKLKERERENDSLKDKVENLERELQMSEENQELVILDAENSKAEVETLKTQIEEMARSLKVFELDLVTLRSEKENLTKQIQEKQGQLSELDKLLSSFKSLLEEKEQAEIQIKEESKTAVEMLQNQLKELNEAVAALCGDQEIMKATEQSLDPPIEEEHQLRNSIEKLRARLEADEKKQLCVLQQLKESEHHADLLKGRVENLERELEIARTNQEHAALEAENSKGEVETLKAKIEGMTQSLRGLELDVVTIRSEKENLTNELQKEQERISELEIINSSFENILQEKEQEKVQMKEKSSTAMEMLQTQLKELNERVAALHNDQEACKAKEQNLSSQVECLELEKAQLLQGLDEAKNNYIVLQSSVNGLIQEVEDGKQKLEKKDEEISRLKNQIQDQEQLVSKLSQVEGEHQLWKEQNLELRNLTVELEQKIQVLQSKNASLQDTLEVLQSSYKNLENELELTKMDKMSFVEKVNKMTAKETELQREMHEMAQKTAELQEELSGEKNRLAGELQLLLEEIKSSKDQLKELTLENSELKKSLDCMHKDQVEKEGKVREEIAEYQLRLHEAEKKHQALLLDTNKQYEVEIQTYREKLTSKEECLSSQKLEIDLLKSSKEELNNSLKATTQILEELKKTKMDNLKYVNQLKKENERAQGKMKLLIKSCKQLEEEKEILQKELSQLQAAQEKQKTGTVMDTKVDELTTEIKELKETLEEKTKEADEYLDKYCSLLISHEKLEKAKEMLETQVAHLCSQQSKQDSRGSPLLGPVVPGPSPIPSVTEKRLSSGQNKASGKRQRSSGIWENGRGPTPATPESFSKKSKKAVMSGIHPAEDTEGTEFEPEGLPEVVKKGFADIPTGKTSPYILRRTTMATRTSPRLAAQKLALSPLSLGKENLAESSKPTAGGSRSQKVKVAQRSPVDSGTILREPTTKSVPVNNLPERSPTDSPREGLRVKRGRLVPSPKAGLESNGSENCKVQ
UniProt P46940, whole entry: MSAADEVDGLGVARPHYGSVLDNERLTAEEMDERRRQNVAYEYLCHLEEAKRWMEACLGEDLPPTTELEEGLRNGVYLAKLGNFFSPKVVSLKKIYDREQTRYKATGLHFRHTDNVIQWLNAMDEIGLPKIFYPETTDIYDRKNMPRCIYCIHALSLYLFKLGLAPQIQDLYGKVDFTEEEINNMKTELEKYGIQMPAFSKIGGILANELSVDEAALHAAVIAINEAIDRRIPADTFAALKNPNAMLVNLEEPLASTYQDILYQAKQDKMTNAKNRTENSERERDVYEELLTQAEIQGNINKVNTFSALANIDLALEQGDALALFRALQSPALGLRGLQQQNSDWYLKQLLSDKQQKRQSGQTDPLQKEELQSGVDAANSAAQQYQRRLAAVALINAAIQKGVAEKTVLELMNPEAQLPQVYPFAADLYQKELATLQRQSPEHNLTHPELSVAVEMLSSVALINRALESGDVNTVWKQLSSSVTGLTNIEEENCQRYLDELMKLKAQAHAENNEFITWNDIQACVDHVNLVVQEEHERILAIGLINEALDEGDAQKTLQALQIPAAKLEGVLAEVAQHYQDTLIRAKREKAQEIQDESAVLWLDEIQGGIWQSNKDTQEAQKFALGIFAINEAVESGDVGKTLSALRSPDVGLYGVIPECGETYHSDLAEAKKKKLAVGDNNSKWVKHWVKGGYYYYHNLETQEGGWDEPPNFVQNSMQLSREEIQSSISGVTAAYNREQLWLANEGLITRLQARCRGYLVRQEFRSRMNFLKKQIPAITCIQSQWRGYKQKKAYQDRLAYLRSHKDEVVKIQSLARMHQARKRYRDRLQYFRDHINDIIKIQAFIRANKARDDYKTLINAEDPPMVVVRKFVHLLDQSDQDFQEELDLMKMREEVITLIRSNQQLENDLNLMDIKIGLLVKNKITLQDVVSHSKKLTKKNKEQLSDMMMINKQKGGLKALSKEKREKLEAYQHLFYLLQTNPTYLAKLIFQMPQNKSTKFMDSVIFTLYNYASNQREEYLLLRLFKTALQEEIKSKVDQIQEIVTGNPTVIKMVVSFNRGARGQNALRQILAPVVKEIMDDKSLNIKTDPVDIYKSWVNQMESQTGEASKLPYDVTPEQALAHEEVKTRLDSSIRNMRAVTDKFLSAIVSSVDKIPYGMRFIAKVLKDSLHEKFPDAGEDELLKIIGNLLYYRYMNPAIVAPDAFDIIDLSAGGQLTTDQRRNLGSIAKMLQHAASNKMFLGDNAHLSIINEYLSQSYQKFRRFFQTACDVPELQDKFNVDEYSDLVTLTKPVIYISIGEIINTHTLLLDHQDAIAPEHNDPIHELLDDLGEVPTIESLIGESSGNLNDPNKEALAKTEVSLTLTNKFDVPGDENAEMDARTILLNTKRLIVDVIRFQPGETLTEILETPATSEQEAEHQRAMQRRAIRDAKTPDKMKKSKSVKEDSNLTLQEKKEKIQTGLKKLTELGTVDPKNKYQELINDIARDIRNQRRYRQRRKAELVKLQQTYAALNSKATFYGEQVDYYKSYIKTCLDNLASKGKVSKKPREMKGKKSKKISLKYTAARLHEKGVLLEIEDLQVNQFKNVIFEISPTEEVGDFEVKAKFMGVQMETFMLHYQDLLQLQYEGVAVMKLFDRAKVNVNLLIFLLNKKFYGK
UniProt P42785: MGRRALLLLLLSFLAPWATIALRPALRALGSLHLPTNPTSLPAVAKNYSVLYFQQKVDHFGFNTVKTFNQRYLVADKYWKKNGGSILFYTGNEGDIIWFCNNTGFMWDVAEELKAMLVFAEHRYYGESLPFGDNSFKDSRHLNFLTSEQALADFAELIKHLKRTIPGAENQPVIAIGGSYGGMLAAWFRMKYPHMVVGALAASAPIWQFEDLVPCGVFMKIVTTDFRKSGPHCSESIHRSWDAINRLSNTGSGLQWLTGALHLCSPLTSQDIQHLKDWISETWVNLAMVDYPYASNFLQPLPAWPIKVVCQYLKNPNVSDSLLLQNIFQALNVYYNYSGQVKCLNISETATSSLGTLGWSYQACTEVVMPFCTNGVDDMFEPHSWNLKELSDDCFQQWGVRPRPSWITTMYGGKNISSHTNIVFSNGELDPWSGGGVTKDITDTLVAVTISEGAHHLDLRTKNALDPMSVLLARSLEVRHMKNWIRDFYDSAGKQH
UniProt P42025, whole entry: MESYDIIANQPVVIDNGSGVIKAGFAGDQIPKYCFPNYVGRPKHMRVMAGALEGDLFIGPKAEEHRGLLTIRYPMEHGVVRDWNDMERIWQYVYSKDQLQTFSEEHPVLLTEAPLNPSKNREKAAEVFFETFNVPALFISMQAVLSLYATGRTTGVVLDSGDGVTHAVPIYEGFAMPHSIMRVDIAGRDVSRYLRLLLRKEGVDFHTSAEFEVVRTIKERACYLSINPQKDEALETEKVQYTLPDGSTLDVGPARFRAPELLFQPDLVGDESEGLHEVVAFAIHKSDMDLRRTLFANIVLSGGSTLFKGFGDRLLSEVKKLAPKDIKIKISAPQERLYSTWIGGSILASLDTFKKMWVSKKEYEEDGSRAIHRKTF

± gives the standard deviation of the averaged measurements. This is a selection; strong and weak results do not stand in their true shares.

On to UniProt P52630 and related entries, for which the NP40-soluble protein abundance reads like this: (concentration: 1mM) 1.01 ± 0.12; (concentration: 2mM) 1.02 ± 0.092; (concentration: 4mM) 1.03 ± 0.07; (concentration: 6mM) 0.977 ± 0.091; (concentration: 8mM) 1.02 ± 0.06; (concentration: 10mM) 0.982 ± 0.077.
In the case of CRIP2 (UniProt P52943), the NP40-soluble protein abundance is, setting by setting: (concentration: 1mM) 0.961 ± 0.045; (concentration: 2mM) 0.973 ± 0.022; (concentration: 4mM) 0.952 ± 0.022; (concentration: 6mM) 0.976 ± 0.013; (concentration: 8mM) 0.952 ± 0.05; (concentration: 10mM) 0.94 ± 0.053.
On to UniProt P49023-2, for which the NP40-soluble protein abundance worked out at 0.952 ± 0.02 (concentration: 1mM); 0.974 ± 0.031 (concentration: 2mM); 0.9482 ± 0.0052 (concentration: 4mM); 0.981 ± 0.029 (concentration: 6mM); 0.941 ± 0.03 (concentration: 8mM); 0.927 ± 0.023 (concentration: 10mM).
In the case of PSMB10 (UniProt P40306), the NP40-soluble protein abundance by setting is: (concentration: 1mM) 0.929 ± 0.022; (concentration: 2mM) 0.9189 ± 0.0024; (concentration: 4mM) 0.905 ± 0.023; (concentration: 6mM) 0.934 ± 0.021; (concentration: 8mM) 0.912 ± 0.023; (concentration: 10mM) 0.934 ± 0.014.
CASP2 (UniProt P42575): the NP40-soluble protein abundance reads like this: (concentration: 1mM) 1.06 ± 0.11; (concentration: 2mM) 1.02 ± 0.086; (concentration: 4mM) 1.02 ± 0.097; (concentration: 6mM) 1.03 ± 0.13; (concentration: 8mM) 0.998 ± 0.12; (concentration: 10mM) 0.991 ± 0.07.
On to PTDSS1 (UniProt P48651), for which the NP40-soluble protein abundance reads like this: (concentration: 1mM) 1.1 ± 0.013; (concentration: 2mM) 1.14 ± 0.088; (concentration: 4mM) 1.24 ± 0.048; (concentration: 6mM) 1.33 ± 0.077; (concentration: 8mM) 1.4 ± 0.082; (concentration: 10mM) 1.47 ± 0.041.
As to UniProt P52739 and related entries, the NP40-soluble protein abundance (concentration: 1mM) was 1.02 ± 0.2; the NP40-soluble protein abundance (concentration: 2mM) amounted to 0.999 ± 0.12; the NP40-soluble protein abundance (concentration: 4mM) stood at 0.994 ± 0.13; the NP40-soluble protein abundance (concentration: 6mM) stood at 0.951 ± 0.11; the NP40-soluble protein abundance (concentration: 8mM) is 0.995 ± 0.14; the NP40-soluble protein abundance (concentration: 10mM) amounted to 1.02 ± 0.088.
Consider CAPZA2 (UniProt P47755), for which the NP40-soluble protein abundance was 1.04 ± 0.011 (concentration: 1mM); 1.03 ± 0.04 (concentration: 2mM); 0.982 ± 0.016 (concentration: 4mM); 1 ± 0.035 (concentration: 6mM); 0.999 ± 0.043 (concentration: 8mM); 0.976 ± 0.051 (concentration: 10mM).
As for ATP6V1E1 (UniProt P36543), the NP40-soluble protein abundance reads like this: (concentration: 1mM) 0.961 ± 0.038; (concentration: 2mM) 0.942 ± 0.022; (concentration: 4mM) 0.896 ± 0.028; (concentration: 6mM) 0.938 ± 0.045; (concentration: 8mM) 0.909 ± 0.018; (concentration: 10mM) 0.877 ± 0.029.
As for CENPF (UniProt P49454), the NP40-soluble protein abundance was found to be 0.996 ± 0.049 (concentration: 1mM); 1.04 ± 0.043 (concentration: 2mM); 1.05 ± 0.042 (concentration: 4mM); 1.09 ± 0.045 (concentration: 6mM); 1.04 ± 0.024 (concentration: 8mM); 1.07 ± 0.015 (concentration: 10mM).
Regarding IQGAP1 (UniProt P46940), the NP40-soluble protein abundance came to 0.977 ± 0.063 (concentration: 1mM); 0.983 ± 0.042 (concentration: 2mM); 0.948 ± 0.029 (concentration: 4mM); 0.947 ± 0.078 (concentration: 6mM); 0.96 ± 0.02 (concentration: 8mM); 0.971 ± 0.033 (concentration: 10mM).
As for UniProt P51572 and related entries, the NP40-soluble protein abundance runs as follows: (concentration: 1mM) 0.927 ± 0.091; (concentration: 2mM) 0.9028 ± 0.0085; (concentration: 4mM) 0.942 ± 0.01; (concentration: 6mM) 1.03 ± 0.057; (concentration: 8mM) 0.954 ± 0.038; (concentration: 10mM) 0.913 ± 0.074.
PRCP (UniProt P42785): the NP40-soluble protein abundance by setting is: (concentration: 1mM) 0.892 ± 0.045; (concentration: 2mM) 0.933 ± 0.025; (concentration: 4mM) 0.913 ± 0.037; (concentration: 6mM) 0.893 ± 0.037; (concentration: 8mM) 0.871 ± 0.067; (concentration: 10mM) 0.921 ± 0.035.
As for RAB27A (UniProt P51159), the NP40-soluble protein abundance runs as follows: (concentration: 1mM) 0.997 ± 0.066; (concentration: 2mM) 0.993 ± 0.025; (concentration: 4mM) 0.981 ± 0.048; (concentration: 6mM) 0.962 ± 0.1; (concentration: 8mM) 0.98 ± 0.048; (concentration: 10mM) 0.99 ± 0.066.
For ACTR1B (UniProt P42025), the NP40-soluble protein abundance reads like this: (concentration: 1mM) 1 ± 0.012; (concentration: 2mM) 1.02 ± 0.015; (concentration: 4mM) 1 ± 0.018; (concentration: 6mM) 0.927 ± 0.039; (concentration: 8mM) 1.02 ± 0.037; (concentration: 10mM) 1.03 ± 0.04.

For the origin of these results see the supplement of paper PMC6411743.
